According to the supplement of paper PMC3334620:
The full ranking holds about 33,000 sequences; the median of “E-score (-0.5 to 0.5)” is about -0.0014, and the highest 2% start at about 0.25. The list shows a part of the results.

The sequences below were run against T1, Cad1 (UniProt P24813) (assay: PBM E-score (8-mer binding enrichment) (E-score (-0.5 to 0.5)); higher = stronger / more preferred TF binding). Settings: protein concentration: 100 nM; construct: GST-full length.
T1 sequence: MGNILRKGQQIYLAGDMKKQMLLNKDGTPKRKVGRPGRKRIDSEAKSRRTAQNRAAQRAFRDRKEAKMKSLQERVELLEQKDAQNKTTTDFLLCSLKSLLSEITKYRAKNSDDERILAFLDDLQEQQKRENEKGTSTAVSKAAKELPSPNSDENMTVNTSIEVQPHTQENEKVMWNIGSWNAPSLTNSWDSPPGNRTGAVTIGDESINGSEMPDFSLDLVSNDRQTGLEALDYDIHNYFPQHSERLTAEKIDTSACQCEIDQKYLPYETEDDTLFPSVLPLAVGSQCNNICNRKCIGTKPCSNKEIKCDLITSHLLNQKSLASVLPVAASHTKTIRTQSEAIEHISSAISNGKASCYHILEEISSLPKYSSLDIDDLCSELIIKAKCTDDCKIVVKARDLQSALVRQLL
Method in brief: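 PURExpress in vitro transcription/translation supplied GST-tagged yeast transcription factors, either full-length or DNA-binding domain. Applied at about 100-200 nM to universal all-10-mer Agilent arrays double-stranded by primer extension, the bound protein was detected with fluorescent anti-GST. E-scores, modified Wilcoxon-Mann-Whitney statistics, were given by the Universal PBM Analysis Suite to ungapped eight-base words pooled with their reverse complements after masliner normalisation.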

Row | Sequence | PBM E-score
1 | CTGAATAA | 0.231
2 | TAATTATA | 0.306
3 | CACGGTAG | -0.0181
4 | ACCACTTG | -0.116
5 | CAAGGATA | 0.013
6 | CCAGCTTC | -0.0391
7 | CGCACTAC | 0.0013
8 | CCCCTACG | -0.215
9 | CCCAAAAC | 0.115
10 | AGCCCCTC | -0.0424
11 | CACTAGTG | 0.117
12 | CATTATGA | -0.179
13 | GTCGTTAA | 0.0765
14 | GTAGGCAA | -0.113
15 | AGAGGCTA | -0.216
16 | GTTCCTCA | 0.0209
17 | AGCAATAG | -0.0777
18 | AACATACA | -0.0678
19 | ACCGTGCG | 0.0974
20 | CGGCTTAA | 0.235
21 | CCCCACAG | -0.28
22 | GATCTACC | -0.079
23 | ACGTCGTG | 0.136
24 | CATTCTAC | -0.108
25 | AACGACTT | -0.0875

Row | Sequence | PBM E-score
26 | CTTAGAAG | -0.0858
27 | AGCATCGC | -0.0978
28 | GACTCCTA | -0.0875
29 | AGCGTATG | -0.095
30 | CCCGGGTA | 0.0006
31 | AAACGTTG | -0.0452
32 | CAATACTA | 0.0552
33 | CAGTCATG | 0.0236
34 | AACCCTGC | -0.181
35 | CACATATG | -0.129
36 | ACAATCCT | 0.11
37 | ATGTGTCA | 0.203
38 | CTGGCTAC | -0.259
39 | CGGGCTGC | 0.022
40 | GATTTATA | 0.319
41 | AATAATCC | 0.194
42 | GTACCTAA | -0.179
43 | ACCCGCCC | 0.114
44 | AACTCTGG | -0.0832
45 | CGTAGCTA | -0.00071
46 | ATTGCTGG | -0.127
47 | ACGTCTTG | -0.0185
48 | CTATGGAC | 0.0446
49 | TATCCACA | 0.132
50 | AGTTTCCA | 0.0647

Row | Sequence | PBM E-score
51 | GAGTACTA | 0.0169
52 | GAAATTTC | 0.095
53 | AGGACCGC | 0.0234
54 | AGCAAAGA | -0.0149
55 | GGGGGTAC | -0.256
56 | AGCTATAG | -0.244
57 | CGACTACA | 0.0971
58 | AATTTCTC | 0.107
59 | TCCACCAA | 0.0952
60 | ATGGACTG | -0.0436
61 | CTGAAAGC | 0.116
62 | CAGCTCGC | 0.0828
63 | AGTTGAAT | 0.123
64 | AAAGAGCT | -0.0808
65 | GCAAGCGA | -0.0403
66 | CGACAACC | -0.0742
67 | AACCAAGA | 0.151
68 | AAGGGATA | 0.0892
69 | GCCCAAAA | 0.0303
70 | ATTTTTTG | 0.122
71 | GGGTAGGA | -0.0874
72 | CTAAAGGA | -0.0686
73 | CCGAACGG | 0.0834
74 | CTCCACAA | -0.0764
75 | AACCCTCC | -0.249

Taken from above.
For PBM E-score, AGCTATAG has the entry -0.244
For PBM E-score, CTGGCTAC has the entry -0.259
For PBM E-score, CTCCACAA has the entry -0.0764
For PBM E-score, AACTCTGG has the entry -0.0832
For PBM E-score, TCCACCAA has the entry 0.0952

Further results follow:

Row | Sequence | PBM E-score
76 | ATAAGTCG | 0.1
77 | AGTGGCAA | -0.0116
78 | CACGCTCA | 0.261
79 | AACGTTGG | 0.0402
80 | AGGAGACT | -0.286
81 | GCGGATAC | 0.157
82 | CACCAAGA | 0.125
83 | ATTGGTCC | 0.0438
84 | ATGGCGGA | -0.081
85 | CGTGCGCC | 0.0558
86 | ATGTGCGA | -0.0686
87 | AAGCTCGG | 0.0173
88 | AGAGATTG | 0.0141
89 | AGAGCTGA | -0.0609
90 | AGGCGGAG | 0.0182
91 | GCGCAGCC | -0.0564
92 | AGTCGGCA | -0.146
93 | ATTGTTCC | 0.19
94 | CCGTCTTA | -0.126
95 | AATGAAGC | 0.0447
96 | CCCTGTCC | -0.252
97 | GACTTGAC | -0.0883
98 | CAGCAAGA | 0.168
99 | CGCCATTA | 0.0208
100 | CTGCAAAC | -0.0866

Row | Sequence | PBM E-score
101 | GCGGCAAA | 0.0972
102 | AATCCCCC | -0.39
103 | ATGTAATC | 0.168
104 | AATCGCTG | 0.0876
105 | CGAATGTA | -0.0748
106 | TAGGAAAA | -0.00955
107 | CTCCTAAA | -0.249
108 | CAATATTA | 0.187
109 | ACCGCTTA | 0.0926
110 | GCCGACCA | -0.0453
111 | CATAGGGG | -0.0969
112 | GGACGCCA | -0.0737
113 | ATCCTAAC | 0.127
114 | CGAGCCGC | 0.11
115 | AGGTAAGG | -0.105
116 | ACAAATGA | 0.148
117 | AGACTACT | 0.0845
118 | AACATGGT | 0.0188
119 | GGAGCTAA | -0.0999
120 | GATAGGCA | -0.0196
121 | CAAACTCC | 0.00985
122 | TGAGCTAA | -0.0989
123 | AGAGACAA | -0.0421
124 | AGGATTAA | 0.167
125 | CGCGTGAA | 0.227

Row | Sequence | PBM E-score
126 | ATGGTCAG | 0.182
127 | GAACTGGA | 0.158
128 | TATGAAAA | 0.163
129 | TACCGAAA | 0.00486
130 | TACACAGA | 0.117
131 | CCTTACAC | -0.129
132 | AACAAGCG | 0.199
133 | ATGCTTAG | 0.145
134 | AAGAAGCT | 0.0694
135 | GCGTTGCC | 0.0483
136 | CTTAGCGA | 0.041
137 | CAATGTCG | 0.074
138 | AATGAGTC | -0.0776
139 | GACCATTA | 0.0271
140 | ACTTACAC | -0.0153
141 | AGCGCCTG | 0.0582
142 | CGTGTCCC | -0.208
143 | GGCCAGGA | 0.0859
144 | ACTCATCG | 0.0286
145 | GACAGGAC | -0.149
146 | CATCTTTC | -0.0525
147 | ACACCCAT | 0.0236
148 | GCTAACGA | 0.0654
149 | AACTTACA | 0.143
150 | CATAAATG | -0.127

Row | Sequence | PBM E-score
151 | GGGGGATA | -0.323
152 | AAATGTCC | -0.204
153 | AATGGCGT | -0.0762
154 | AAATTCCC | -0.00316
155 | GCGCTACA | 0.141
156 | AAGTAAGA | -0.215
157 | AAGGCACG | 0.0467
158 | ATGATTTC | 0.172
159 | ATCCTGGA | 0.0158
160 | GGTCCATA | -0.158
161 | CCCCCAGG | -0.361
162 | GTGAAACA | 0.0578
163 | GTAGCGAC | -0.137
164 | GCATTGAA | 0.0835
165 | CGTAAAAC | -0.109
166 | CGACATTA | 0.163
167 | GTAGCCTA | -0.154
168 | ACTCTGAC | -0.094
169 | AGCCAGAC | -0.0137
170 | GGCCTAGA | -0.15
171 | AGGTAGTC | -0.0998
172 | GGAAGATA | 0.00682

Laid out differently: results already given
GTGAAACA
  PBM E-score = 0.0578
GTAGCGAC
  PBM E-score = -0.137
